Data from US20080199854.
Construct, isoform or probe ends are uncertain for at least one entry. At least one result comes from cells or an extract, where the contact may be indirect. For some assays here: No signal at the amounts used counts as a negative. For some assays here: Tags and fusion partners may be left off the protein sequences shown.

Sequences of proteins named here, by UniProt entry; tags and fusion partners are left off. A change or cut given only in a name is not applied to a line headed by its entry. Residues count along the entry.
UniProt P13383, whole entry: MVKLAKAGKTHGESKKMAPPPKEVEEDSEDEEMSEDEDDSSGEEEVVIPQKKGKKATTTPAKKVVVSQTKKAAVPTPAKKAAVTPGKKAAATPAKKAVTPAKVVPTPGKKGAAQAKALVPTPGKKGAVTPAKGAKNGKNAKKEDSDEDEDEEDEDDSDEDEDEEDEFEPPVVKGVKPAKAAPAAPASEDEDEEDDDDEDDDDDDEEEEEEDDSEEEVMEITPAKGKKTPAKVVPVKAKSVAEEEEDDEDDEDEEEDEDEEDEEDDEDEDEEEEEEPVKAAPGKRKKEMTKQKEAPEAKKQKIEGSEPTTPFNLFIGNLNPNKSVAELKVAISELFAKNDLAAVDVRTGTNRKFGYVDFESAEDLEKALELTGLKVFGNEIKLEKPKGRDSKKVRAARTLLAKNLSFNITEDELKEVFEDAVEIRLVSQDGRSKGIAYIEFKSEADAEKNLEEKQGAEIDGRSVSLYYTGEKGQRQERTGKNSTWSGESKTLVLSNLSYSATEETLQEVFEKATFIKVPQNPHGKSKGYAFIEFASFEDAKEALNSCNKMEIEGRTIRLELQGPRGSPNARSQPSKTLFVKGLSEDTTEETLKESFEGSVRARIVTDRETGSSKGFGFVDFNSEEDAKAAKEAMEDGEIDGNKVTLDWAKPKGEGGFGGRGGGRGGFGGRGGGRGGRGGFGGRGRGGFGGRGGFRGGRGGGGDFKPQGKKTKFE
UniProt Q6IMY8, 2-798: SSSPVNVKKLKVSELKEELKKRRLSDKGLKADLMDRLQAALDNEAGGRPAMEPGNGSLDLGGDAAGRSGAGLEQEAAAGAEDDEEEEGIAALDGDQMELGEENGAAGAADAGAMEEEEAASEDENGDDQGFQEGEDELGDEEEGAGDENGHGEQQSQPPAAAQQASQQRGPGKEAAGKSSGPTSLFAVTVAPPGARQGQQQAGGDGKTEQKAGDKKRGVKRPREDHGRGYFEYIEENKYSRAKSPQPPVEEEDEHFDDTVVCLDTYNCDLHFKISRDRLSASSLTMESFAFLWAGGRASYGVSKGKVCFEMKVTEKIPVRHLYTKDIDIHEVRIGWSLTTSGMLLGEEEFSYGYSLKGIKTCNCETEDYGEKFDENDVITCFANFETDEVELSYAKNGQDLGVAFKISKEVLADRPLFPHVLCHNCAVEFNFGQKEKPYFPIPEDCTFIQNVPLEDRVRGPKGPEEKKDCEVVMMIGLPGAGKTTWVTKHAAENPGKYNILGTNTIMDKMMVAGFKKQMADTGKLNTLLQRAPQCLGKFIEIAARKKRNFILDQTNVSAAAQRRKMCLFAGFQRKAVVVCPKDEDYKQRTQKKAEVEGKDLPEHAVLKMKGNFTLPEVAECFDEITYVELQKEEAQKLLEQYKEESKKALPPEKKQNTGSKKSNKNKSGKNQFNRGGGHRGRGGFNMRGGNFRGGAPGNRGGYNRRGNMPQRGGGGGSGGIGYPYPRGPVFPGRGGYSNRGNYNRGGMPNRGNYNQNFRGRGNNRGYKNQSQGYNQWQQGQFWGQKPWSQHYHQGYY
UniProt A7VJC2: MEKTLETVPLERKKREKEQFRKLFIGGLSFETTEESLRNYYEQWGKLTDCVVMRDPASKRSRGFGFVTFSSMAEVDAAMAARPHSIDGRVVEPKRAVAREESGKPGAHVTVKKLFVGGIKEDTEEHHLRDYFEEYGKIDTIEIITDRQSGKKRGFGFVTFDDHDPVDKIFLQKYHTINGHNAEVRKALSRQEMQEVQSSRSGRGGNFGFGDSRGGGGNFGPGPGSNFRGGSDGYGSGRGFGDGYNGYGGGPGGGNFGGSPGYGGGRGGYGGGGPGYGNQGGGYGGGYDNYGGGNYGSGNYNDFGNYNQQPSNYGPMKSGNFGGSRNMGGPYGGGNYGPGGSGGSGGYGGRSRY
UniProt Q3SWU0: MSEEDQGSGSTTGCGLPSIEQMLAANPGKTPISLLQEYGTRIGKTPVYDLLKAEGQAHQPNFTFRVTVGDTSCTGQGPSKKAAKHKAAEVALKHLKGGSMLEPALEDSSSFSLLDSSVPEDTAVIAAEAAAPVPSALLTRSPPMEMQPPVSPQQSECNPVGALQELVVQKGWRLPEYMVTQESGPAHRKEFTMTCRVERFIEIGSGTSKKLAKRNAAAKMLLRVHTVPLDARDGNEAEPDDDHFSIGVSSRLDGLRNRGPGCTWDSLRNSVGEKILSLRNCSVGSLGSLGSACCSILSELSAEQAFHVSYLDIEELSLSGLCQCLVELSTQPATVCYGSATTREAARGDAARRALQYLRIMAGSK
UniProt Q6URK4: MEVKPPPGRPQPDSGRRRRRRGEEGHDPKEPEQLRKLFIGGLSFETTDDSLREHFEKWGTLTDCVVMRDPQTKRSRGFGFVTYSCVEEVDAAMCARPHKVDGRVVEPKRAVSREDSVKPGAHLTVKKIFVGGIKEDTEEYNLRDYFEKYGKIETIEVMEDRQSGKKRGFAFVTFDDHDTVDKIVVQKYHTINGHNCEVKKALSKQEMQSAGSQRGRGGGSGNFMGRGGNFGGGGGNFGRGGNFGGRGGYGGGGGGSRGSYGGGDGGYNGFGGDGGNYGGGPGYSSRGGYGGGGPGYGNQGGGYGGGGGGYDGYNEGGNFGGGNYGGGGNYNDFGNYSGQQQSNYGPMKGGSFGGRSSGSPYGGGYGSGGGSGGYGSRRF
UniProt P04256: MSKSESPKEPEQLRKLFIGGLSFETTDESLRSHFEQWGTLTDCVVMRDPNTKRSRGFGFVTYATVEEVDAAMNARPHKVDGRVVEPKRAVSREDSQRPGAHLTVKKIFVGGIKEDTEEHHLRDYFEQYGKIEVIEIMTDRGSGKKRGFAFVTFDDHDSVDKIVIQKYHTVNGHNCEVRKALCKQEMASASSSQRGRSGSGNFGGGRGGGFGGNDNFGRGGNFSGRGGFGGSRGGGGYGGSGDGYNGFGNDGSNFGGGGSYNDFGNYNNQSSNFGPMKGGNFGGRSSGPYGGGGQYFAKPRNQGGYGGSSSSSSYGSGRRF
UniProt F1LQ48: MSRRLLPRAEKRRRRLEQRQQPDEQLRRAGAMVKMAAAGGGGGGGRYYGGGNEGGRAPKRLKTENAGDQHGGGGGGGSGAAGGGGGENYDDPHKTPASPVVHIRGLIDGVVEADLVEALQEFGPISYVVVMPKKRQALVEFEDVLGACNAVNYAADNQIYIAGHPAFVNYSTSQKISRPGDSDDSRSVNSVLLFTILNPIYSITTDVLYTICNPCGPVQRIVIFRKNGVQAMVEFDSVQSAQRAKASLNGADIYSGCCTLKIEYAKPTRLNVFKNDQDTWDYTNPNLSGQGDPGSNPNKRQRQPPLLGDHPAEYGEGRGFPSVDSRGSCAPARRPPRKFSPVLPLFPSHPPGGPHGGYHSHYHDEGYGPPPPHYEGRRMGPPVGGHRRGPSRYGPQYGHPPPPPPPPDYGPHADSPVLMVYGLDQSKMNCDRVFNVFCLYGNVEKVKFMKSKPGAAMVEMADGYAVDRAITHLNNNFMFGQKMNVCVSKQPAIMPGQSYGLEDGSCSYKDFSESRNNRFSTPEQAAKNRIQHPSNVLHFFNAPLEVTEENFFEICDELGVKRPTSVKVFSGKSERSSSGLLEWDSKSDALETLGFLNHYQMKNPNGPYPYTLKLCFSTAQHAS

Columns and labels:
Experiment in all cases: pull-down
splicing factor Prp8 = splicing factor Prp8 (UniProt G3V6H2); conditions: PNA strand, Cys-Bpa at N-term, Lys-amide at C-term, disulfide to TP10; protein in cells
Nucleolin = Nucleolin (UniProt P13383); conditions: PNA strand, Cys-Bpa at N-term, Lys-amide at C-term, disulfide to TP10; protein in cells
hnRNP U = hnRNP U (UniProt Q6IMY8); conditions: PNA strand, Cys-Bpa at N-term, Lys-amide at C-term, disulfide to TP10, protein in cells
SAP 114 = molecular target: T1, SAP 114 (UniProt D3ZQM0); conditions: PNA strand, Cys-Bpa at N-term, Lys-amide at C-term, disulfide to TP10; protein in cells
T1 sequence (looked up, limits assumed): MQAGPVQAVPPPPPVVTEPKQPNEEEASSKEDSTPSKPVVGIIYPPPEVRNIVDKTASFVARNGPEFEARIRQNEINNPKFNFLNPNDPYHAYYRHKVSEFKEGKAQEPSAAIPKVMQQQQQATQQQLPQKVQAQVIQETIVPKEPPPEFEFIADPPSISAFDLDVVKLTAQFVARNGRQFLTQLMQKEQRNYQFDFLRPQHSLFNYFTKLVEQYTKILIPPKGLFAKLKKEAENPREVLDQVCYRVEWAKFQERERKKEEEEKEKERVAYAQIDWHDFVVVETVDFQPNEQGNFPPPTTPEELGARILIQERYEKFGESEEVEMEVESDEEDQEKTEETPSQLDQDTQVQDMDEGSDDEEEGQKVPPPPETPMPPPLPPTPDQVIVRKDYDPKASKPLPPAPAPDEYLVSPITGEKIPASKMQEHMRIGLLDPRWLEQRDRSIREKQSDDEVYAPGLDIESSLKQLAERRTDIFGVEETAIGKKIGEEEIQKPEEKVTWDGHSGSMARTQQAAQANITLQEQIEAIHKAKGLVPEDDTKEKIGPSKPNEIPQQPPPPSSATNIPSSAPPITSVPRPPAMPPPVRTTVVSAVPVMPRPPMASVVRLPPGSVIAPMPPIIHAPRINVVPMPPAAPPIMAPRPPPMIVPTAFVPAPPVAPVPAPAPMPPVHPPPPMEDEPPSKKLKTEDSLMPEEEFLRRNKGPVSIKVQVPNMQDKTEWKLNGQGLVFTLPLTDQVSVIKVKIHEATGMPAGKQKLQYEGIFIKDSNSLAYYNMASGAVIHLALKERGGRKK

hnRNP A2/B1 = hnRNP A2/B1 (UniProt A7VJC2); conditions: PNA strand, Cys-Bpa at N-term, Lys-amide at C-term, disulfide to TP10; protein in cells
hnRNP K = hnRNP K (UniProt P61980); conditions: PNA strand, Cys-Bpa at N-term, Lys-amide at C-term, disulfide to TP10, protein in cells
hnRNP R = molecular target: T2, hnRNP R (UniProt Q566E4); conditions: PNA strand, Cys-Bpa at N-term, Lys-amide at C-term, disulfide to TP10; protein in cells
T2 sequence (looked up, limits assumed): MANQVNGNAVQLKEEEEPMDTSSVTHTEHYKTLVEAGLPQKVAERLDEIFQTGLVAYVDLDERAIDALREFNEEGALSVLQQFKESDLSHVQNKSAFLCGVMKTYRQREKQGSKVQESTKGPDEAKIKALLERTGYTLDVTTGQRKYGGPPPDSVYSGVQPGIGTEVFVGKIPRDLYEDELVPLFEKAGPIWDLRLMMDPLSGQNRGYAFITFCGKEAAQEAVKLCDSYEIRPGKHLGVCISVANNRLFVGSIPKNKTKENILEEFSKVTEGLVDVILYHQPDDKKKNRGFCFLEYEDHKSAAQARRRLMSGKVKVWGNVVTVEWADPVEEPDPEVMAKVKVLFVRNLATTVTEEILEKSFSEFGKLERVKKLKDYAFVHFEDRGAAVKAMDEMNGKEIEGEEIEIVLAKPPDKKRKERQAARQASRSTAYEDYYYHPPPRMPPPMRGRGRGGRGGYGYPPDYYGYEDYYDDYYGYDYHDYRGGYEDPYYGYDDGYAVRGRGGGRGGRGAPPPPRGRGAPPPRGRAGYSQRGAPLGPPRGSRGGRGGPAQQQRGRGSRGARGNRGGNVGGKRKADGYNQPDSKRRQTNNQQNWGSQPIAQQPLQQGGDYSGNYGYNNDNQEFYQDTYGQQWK

TAR RBP = TAR RBP (UniProt Q3SWU0); conditions: PNA strand, Cys-Bpa at N-term, Lys-amide at C-term, disulfide to TP10; protein in cells
hnRNP A3 = hnRNP A3 (UniProt Q6URK4); conditions: PNA strand, Cys-Bpa at N-term, Lys-amide at C-term, disulfide to TP10; protein in cells
U5snRNP = conditions: PNA strand, Cys-Bpa at N-term, Lys-amide at C-term, disulfide to TP10; protein in cells
hsp90-b = hsp90-b (UniProt P34058); conditions: PNA strand, Cys-Bpa at N-term, Lys-amide at C-term, disulfide to TP10; protein in cells
hsp71 = hsp71 (UniProt P63018); conditions: PNA strand, Cys-Bpa at N-term, Lys-amide at C-term, disulfide to TP10; protein in cells
hspHPTG = conditions: PNA strand, Cys-Bpa at N-term, Lys-amide at C-term, disulfide to TP10; protein in cells
hscognate 90 = conditions: PNA strand, Cys-Bpa at N-term, Lys-amide at C-term, disulfide to TP10; protein in cells
hsp70 = conditions: PNA strand, Cys-Bpa at N-term, Lys-amide at C-term, disulfide to TP10; protein in cells
hnRNP A1 = hnRNP A1 (UniProt P04256); conditions: PNA strand, Cys-Bpa at N-term, Lys-amide at C-term, disulfide to TP10; protein in cells
MARTA 1 = molecular target: T3, MARTA 1 (UniProt Q99PF5); conditions: PNA strand, Cys-Bpa at N-term, Lys-amide at C-term, disulfide to TP10; protein in cells
T3 sequence (looked up, limits assumed): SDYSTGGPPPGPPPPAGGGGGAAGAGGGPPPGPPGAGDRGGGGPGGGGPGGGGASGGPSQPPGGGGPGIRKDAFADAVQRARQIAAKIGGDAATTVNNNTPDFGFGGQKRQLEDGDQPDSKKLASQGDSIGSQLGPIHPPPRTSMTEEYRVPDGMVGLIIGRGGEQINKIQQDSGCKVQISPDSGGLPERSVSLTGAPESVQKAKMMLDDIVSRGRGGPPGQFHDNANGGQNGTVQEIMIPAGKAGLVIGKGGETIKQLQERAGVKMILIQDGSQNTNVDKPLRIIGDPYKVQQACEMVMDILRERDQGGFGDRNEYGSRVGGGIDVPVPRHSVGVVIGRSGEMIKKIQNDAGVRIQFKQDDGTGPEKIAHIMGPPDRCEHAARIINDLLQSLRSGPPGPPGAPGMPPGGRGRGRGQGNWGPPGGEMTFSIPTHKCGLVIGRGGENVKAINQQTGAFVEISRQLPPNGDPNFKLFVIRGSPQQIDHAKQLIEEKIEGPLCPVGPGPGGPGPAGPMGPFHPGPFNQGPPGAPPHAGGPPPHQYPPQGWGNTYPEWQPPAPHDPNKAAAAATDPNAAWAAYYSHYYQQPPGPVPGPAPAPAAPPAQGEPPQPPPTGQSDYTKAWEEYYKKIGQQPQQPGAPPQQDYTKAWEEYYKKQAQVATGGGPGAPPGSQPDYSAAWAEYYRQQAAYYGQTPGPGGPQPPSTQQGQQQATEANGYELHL

hnRNP X = conditions: PNA strand, Cys-Bpa at N-term, Lys-amide at C-term, disulfide to TP10; protein in cells
RBP Fus (pigpen) = molecular target: T4, RBP Fus (pigpen) (UniProt Q5PQK2); conditions: PNA strand, Cys-Bpa at N-term, Lys-amide at C-term, disulfide to TP10; protein in cells
T4 sequence (looked up, limits assumed): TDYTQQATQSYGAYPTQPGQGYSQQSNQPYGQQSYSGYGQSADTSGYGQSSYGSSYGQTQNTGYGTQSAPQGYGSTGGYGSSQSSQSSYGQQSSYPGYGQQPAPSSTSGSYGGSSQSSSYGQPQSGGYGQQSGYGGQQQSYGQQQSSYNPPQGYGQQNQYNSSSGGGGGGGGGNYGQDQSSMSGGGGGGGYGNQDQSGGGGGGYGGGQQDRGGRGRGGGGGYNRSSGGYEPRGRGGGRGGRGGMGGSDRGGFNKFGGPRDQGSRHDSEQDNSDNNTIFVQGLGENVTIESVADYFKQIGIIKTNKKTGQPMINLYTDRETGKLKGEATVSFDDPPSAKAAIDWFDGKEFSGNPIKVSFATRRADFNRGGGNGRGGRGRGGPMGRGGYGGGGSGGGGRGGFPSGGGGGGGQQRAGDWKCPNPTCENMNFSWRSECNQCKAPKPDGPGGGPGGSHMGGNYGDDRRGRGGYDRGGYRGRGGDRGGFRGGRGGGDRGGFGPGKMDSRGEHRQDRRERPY

[1] = molecular target: T5, pre-mRNA splicing factor 75 (UniProt G3V798); conditions: PNA strand, Cys-Bpa at N-term, Lys-amide at C-term, disulfide to TP10; protein in cells
T5 sequence (looked up, limits assumed): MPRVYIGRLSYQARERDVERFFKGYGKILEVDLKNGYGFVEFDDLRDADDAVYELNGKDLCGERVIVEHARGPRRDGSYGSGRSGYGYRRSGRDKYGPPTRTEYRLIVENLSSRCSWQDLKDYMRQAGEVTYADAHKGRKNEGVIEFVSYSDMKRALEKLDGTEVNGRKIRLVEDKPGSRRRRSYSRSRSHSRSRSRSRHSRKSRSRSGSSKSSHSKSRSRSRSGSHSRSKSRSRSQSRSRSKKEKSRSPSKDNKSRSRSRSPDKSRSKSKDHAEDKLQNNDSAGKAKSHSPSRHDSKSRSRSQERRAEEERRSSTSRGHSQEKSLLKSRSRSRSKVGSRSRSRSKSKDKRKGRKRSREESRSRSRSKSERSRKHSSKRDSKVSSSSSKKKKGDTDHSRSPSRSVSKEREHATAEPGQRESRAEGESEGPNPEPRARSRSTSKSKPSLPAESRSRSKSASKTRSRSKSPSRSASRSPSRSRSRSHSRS

hnRNP L = hnRNP L (UniProt F1LQ48); conditions: PNA strand, Cys-Bpa at N-term, Lys-amide at C-term, disulfide to TP10; protein in cells
hsp82 = conditions: PNA strand, Cys-Bpa at N-term, Lys-amide at C-term, disulfide to TP10; protein in cells
[2] = molecular target: PTB-associated splicing factor (PSF) (UniProt Q4KM71); conditions: PNA strand, Cys-Bpa at N-term, Lys-amide at C-term, disulfide to TP10; protein in cells
[3] = molecular target: T6, spliceosome associated protein 145 (SAP145) (UniProt D3ZMS1); conditions: PNA strand, Cys-Bpa at N-term, Lys-amide at C-term, disulfide to TP10; protein in cells
T6 sequence (looked up, limits assumed): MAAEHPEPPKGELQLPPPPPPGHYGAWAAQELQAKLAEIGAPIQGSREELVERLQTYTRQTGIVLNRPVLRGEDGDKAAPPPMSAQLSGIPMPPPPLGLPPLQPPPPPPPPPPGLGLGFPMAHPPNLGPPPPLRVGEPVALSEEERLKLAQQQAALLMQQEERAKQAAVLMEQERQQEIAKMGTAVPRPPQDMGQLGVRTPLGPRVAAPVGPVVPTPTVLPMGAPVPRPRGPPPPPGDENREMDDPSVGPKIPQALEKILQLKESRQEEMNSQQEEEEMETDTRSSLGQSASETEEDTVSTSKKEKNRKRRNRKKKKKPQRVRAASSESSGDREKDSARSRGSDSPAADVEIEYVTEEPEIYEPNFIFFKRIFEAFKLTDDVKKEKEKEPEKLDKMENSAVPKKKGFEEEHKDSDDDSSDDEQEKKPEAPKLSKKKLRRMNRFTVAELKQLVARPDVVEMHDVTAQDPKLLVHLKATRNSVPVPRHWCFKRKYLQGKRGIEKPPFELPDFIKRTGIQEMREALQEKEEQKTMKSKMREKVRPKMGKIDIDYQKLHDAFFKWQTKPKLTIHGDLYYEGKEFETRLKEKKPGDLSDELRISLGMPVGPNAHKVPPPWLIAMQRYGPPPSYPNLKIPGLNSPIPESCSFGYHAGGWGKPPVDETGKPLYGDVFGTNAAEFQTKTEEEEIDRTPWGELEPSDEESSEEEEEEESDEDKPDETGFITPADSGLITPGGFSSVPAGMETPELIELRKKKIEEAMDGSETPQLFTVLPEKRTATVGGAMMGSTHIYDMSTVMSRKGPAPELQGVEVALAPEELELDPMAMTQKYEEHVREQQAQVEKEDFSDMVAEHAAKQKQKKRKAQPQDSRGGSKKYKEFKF

AAACCTCTAAATCAAGGCCTC [Ank mRNA 3' region with annealed Ank 2 PNA]
binding result (splicing factor Prp8): binds | binding result (Nucleolin): binds | binding result (hnRNP U): binds | binding result (SAP 114): binds | binding result (hnRNP A2/B1): binds | binding result (hnRNP K; found only with Ank 1 PNA): no binding | binding result (hnRNP R): binds | binding result (TAR RBP): binds | binding result (hnRNP A3): binds

AAGCGCGGCTGCTCTAGCAGAA [Ank mRNA 5'-UTR region with annealed Ank 3 PNA]
binding result (U5snRNP): binds | binding result (hsp90-b): binds | binding result (hsp71): binds | binding result (Nucleolin): binds | binding result (hnRNP U): binds | binding result (hspHPTG): binds | binding result (hnRNP K; found only with Ank 1 PNA): no binding | binding result (hscognate 90): binds | binding result (TAR RBP): binds | binding result (hsp70): binds

TACGAAACCTCTAAATCAAGG [Ank mRNA 3' region with annealed Ank 1 PNA]
binding result (hsp90-b): binds | binding result (hnRNP A1): binds | binding result (hsp71): binds | binding result (MARTA 1): binds | binding result (Nucleolin): binds | binding result (hnRNP X): binds | binding result (RBP Fus (pigpen)): binds | binding result [1]: binds | binding result (hnRNP L): binds | binding result (hnRNP U; found only with Ank 2 and Ank 3 PNA): no binding | binding result (hspHPTG): binds | binding result (hnRNP A2/B1): binds | binding result (hnRNP K): binds | binding result (hscognate 90): binds | binding result (hnRNP A3): binds | binding result (hsp82): binds | binding result [2]: binds | binding result [3]: binds | binding result (hsp70): binds
